For one test, the target named is T1, DYRK2-GFP, wild type (UniProt Q92630).
T1 sequence: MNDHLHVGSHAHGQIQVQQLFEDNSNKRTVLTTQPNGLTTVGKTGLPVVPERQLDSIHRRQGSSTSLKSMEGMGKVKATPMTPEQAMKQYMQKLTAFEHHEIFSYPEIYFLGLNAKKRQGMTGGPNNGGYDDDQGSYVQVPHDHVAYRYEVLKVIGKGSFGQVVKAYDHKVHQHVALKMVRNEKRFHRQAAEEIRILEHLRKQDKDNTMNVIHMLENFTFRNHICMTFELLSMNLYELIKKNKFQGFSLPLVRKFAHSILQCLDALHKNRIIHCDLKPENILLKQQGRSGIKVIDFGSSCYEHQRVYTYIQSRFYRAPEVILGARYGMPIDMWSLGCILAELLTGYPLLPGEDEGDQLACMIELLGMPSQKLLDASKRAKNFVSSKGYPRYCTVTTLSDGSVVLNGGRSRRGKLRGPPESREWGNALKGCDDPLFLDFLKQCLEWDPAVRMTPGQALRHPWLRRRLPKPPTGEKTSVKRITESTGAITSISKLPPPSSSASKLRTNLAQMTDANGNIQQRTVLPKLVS
As to the kind of experiment: co-IP.

By UniProt entry, the sequences of proteins in these tests, tags left out.
UniProt Q00613: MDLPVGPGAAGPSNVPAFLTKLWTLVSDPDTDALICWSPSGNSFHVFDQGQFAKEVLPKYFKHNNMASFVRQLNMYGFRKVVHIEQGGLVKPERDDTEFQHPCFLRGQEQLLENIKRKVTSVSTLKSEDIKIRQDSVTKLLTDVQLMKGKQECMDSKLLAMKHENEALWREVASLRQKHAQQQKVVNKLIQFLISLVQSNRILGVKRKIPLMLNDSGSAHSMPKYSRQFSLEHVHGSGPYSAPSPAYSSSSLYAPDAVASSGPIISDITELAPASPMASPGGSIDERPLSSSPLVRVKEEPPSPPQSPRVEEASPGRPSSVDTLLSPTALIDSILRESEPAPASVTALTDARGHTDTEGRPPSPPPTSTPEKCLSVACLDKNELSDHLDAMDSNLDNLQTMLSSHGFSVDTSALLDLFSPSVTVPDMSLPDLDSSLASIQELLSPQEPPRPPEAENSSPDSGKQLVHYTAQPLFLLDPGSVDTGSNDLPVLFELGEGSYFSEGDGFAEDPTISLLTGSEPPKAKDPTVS

Test [1] addresses T2, HA-tagged DYRK2 (dual-specificity tyrosine-regulated kinase 2) (UniProt Q92630).
T2 sequence: T1 sequence
Kind of test: co-IP.

These are yes or no findings as the source states them, for the method shown. In cells and extracts the contact can be indirect. Some results given as binding are weak or reduced against the parent protein; the word gives no strength. Sequences can lack the tags named with a protein.

Regarding “Flag-tagged HSF1 (from UniProt Q00613 1-529)”, the binding result with DYRK2-GFP, wild type was “binds weakly”.
On to “HSF1-GFP (heat shock factor 1) (from UniProt Q00613 1-529)”, for which the binding result in test [1] was “binds weakly”.

The values are drawn from article doi:10.1101/633560.
